Data as given in the supplement of paper PMC6411743.
± gives the standard deviation of the averaged measurements. The entries are a selection whose mix differs from that of the whole data set.

The chains behind the UniProt entries cited, without tags or fusion partners. Where a name states a change or a piece, a line headed by the entry shows the natural chain unless it says otherwise.
UniProt O60318: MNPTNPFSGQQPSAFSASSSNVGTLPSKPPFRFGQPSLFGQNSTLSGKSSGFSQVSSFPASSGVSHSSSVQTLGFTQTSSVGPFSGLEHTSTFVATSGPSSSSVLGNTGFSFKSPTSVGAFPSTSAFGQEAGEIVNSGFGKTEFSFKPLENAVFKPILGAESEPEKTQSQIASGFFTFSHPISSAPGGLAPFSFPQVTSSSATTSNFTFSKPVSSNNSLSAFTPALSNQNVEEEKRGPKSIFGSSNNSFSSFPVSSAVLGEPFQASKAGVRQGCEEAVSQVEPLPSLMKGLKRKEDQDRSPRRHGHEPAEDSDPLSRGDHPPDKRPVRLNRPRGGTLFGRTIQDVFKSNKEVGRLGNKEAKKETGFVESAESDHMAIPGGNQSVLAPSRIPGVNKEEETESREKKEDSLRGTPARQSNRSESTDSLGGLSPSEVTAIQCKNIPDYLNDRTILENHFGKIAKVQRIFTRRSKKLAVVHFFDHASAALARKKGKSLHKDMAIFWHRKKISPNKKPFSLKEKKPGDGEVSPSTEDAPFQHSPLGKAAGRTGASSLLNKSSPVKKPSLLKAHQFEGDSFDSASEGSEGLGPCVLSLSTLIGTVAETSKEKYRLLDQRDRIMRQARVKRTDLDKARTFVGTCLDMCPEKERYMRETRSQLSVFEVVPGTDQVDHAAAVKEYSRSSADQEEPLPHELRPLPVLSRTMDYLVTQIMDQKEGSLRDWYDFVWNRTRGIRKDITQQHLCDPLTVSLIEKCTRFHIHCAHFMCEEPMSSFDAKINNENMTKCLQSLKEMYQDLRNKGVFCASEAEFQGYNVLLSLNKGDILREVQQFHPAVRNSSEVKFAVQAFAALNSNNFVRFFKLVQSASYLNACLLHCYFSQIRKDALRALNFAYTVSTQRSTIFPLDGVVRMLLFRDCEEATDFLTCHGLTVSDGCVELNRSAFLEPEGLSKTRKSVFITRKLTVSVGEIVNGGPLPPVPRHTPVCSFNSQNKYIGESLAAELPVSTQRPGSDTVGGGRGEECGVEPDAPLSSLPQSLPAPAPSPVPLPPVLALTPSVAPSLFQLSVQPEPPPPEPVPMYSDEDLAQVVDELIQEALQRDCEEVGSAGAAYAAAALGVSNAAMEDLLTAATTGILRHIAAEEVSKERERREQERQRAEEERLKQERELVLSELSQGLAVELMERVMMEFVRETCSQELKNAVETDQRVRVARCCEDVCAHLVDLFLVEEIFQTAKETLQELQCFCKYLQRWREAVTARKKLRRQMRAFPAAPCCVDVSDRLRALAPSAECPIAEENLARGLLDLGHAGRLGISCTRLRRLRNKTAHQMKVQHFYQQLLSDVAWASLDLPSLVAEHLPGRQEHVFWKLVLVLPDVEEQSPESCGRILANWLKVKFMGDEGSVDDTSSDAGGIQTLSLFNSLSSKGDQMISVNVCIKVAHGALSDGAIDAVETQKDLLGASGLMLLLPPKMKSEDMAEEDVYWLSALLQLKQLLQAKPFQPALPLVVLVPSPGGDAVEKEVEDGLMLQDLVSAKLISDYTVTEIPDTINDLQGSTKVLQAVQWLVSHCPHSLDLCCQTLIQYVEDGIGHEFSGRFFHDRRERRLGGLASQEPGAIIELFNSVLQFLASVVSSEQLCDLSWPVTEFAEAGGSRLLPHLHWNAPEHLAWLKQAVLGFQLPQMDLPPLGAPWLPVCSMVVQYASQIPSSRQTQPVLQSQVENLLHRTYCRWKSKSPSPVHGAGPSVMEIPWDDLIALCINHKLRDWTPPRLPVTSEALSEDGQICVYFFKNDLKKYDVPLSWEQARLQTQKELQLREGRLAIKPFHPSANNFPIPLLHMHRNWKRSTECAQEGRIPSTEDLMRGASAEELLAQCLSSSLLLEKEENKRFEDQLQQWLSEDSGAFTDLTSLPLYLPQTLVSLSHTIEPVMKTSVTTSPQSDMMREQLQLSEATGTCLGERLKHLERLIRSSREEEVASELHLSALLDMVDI
UniProt O15121: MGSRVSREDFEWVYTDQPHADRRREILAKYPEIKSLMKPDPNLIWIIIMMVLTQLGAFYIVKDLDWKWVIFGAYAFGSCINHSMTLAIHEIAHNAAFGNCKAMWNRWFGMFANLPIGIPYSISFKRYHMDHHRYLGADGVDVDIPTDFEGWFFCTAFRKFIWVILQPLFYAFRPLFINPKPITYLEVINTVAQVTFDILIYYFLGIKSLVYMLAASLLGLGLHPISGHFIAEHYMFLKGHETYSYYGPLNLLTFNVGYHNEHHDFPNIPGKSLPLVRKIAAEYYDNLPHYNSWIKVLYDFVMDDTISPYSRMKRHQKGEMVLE
UniProt O14975, whole entry, looked up: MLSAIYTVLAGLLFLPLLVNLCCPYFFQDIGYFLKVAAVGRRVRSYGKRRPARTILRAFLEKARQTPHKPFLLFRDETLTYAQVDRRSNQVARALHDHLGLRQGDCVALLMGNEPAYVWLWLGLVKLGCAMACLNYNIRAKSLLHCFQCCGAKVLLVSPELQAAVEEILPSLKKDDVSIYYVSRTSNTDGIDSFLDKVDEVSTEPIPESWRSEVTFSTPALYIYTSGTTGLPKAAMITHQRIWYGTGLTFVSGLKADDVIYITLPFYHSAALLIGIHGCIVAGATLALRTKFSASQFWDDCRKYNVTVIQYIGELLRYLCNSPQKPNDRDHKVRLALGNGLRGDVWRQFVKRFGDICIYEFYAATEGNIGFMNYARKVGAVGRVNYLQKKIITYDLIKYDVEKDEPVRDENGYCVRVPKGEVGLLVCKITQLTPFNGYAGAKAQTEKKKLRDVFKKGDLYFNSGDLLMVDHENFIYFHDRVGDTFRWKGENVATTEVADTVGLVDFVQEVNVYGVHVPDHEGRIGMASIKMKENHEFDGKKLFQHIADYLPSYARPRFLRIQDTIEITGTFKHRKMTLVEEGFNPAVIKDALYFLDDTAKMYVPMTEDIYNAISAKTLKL
UniProt O43924: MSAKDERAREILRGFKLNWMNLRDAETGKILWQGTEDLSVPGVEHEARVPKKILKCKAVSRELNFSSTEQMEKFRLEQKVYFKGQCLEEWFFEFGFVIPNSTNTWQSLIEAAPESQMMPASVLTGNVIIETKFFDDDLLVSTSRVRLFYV
UniProt O15260: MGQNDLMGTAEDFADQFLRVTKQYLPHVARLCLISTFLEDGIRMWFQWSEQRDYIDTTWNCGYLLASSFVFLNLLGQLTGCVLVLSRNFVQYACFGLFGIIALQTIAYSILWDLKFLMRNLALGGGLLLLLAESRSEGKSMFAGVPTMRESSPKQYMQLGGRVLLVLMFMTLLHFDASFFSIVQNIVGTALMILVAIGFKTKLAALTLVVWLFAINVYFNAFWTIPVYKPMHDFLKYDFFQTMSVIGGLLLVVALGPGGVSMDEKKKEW
UniProt O43929: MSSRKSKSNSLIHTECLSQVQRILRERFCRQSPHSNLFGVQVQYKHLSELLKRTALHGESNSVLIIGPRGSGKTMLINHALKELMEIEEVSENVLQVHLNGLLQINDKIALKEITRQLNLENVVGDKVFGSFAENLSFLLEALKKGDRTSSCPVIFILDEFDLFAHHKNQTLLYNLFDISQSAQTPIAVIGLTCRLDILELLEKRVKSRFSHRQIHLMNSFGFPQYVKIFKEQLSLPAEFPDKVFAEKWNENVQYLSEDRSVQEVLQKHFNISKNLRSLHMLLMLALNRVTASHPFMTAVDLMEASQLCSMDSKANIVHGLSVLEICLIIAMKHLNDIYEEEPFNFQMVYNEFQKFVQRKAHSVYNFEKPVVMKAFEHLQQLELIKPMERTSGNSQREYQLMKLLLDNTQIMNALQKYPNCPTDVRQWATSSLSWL
UniProt O43159: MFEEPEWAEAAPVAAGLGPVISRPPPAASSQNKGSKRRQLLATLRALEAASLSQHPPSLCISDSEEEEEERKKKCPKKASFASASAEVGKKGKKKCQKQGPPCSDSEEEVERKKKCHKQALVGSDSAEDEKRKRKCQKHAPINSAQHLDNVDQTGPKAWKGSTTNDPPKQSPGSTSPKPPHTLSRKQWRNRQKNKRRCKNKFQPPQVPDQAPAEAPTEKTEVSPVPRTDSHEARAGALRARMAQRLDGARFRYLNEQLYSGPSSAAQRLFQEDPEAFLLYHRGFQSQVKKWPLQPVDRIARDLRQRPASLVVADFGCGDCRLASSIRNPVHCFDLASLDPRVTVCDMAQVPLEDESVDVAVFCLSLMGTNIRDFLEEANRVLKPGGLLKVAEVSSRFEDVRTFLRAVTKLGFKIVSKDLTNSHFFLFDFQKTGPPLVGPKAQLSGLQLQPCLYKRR
UniProt O43148, whole entry: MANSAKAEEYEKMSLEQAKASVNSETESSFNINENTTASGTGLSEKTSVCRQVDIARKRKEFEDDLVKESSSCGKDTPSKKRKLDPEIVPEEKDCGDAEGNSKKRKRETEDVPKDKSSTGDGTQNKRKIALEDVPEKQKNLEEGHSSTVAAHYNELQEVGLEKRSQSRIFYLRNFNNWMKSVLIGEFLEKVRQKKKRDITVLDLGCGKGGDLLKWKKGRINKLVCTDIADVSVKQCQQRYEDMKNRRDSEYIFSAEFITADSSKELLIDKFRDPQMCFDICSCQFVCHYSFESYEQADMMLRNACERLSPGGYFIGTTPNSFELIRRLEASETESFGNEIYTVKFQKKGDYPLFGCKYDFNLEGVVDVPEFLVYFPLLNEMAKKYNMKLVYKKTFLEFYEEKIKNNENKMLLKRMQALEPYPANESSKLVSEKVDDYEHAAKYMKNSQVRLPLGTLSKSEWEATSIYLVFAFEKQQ
UniProt O43760: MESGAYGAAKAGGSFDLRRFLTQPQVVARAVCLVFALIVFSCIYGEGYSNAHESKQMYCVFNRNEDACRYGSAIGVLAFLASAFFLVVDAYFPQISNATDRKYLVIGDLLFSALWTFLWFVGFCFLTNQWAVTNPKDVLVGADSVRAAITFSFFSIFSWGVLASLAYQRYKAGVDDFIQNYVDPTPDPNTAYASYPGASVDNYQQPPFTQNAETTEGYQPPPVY
UniProt O14828: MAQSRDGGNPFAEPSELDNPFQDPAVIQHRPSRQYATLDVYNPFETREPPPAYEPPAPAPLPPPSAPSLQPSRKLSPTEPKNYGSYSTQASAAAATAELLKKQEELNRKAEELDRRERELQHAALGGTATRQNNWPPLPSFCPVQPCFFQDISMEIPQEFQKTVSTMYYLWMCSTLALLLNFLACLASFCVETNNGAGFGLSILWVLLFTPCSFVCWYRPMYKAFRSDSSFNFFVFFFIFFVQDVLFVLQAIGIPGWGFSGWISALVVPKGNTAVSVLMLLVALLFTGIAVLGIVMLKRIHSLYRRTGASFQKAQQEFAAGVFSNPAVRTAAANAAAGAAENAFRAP
UniProt O14933: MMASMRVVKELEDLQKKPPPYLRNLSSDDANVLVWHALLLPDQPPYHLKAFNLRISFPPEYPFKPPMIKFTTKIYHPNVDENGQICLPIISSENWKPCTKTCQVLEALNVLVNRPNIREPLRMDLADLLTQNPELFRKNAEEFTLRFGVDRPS
UniProt O43683: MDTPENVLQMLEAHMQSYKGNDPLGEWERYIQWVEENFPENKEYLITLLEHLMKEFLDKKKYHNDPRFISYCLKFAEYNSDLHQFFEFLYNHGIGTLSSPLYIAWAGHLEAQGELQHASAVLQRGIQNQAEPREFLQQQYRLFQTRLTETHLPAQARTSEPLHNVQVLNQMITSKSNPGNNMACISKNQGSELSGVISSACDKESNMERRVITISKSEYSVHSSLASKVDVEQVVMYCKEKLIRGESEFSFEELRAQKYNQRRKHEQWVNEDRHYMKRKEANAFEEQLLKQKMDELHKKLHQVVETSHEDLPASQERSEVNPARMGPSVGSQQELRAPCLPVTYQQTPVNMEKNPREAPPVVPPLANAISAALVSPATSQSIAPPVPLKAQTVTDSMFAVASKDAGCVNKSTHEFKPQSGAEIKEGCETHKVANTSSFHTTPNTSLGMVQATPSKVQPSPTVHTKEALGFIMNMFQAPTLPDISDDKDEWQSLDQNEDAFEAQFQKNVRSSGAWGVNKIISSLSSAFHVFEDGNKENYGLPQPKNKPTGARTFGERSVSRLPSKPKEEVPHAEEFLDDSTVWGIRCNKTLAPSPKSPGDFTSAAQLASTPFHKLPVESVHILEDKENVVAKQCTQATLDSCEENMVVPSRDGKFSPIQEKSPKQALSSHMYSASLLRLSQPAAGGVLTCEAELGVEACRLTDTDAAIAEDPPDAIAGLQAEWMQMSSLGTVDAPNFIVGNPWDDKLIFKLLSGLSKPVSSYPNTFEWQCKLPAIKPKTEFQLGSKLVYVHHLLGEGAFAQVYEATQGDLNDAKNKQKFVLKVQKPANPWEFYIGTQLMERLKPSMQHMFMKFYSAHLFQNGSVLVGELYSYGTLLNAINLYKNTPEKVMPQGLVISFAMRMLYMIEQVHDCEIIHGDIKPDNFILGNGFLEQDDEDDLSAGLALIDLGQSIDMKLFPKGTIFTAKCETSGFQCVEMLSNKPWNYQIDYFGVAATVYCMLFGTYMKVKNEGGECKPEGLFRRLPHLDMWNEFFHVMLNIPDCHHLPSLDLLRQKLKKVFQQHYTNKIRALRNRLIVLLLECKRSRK
UniProt O00483, whole entry: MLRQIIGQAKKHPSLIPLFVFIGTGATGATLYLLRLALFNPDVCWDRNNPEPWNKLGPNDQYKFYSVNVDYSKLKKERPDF

Compound: Nc1ncnc2c1ncn2[C@@H]1O[C@H](COP(=O)(O)OP(=O)(O)OP(=O)(O)O)[C@@H](O)[C@H]1O [adenosine triphosphate]
Test: NP40-soluble protein abundance relative to vehicle (solubility fold change) (ratio); higher = more soluble protein in presence of ATP
Outline: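 Crude Jurkat lysate, prepared by Dounce homogenisation, was exposed to eight concentrations from 0.1 to 10 mM for 10 min at room temperature and then 3 min at 37 °C. Solubilisation used 0.8% NP40 with benzonase for 60 min at 4 °C, followed by ultracentrifugation and TMT labelling of the supernatant for LC-MS/MS. After vsn normalisation of intensities, each value is the fold change against the detergent-processed vehicle within each replicate, across three independent experiments.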

Target	NP40-soluble protein abundance (concentration: 1mM)	NP40-soluble protein abundance (concentration: 2mM)	NP40-soluble protein abundance (concentration: 4mM)	NP40-soluble protein abundance (concentration: 6mM)	NP40-soluble protein abundance (concentration: 8mM)	NP40-soluble protein abundance (concentration: 10mM)
MCM3AP (UniProt O60318)	1.07 ± 0.048	1.01 ± 0.22	1.01 ± 0.092	1.02 ± 0.18	1.01 ± 0.13	1.02 ± 0.13
DEGS1 (UniProt O15121)	1.04 ± 0.025	0.96 ± 0.064	0.956 ± 0.041	0.9614 ± 0.0059	1.017 ± 0.0065	0.974 ± 0.052
SCAMP1 (UniProt O15126)	0.975 ± 0.027	0.984 ± 0.01	0.958 ± 0.03	1.01 ± 0.038	0.954 ± 0.039	0.94 ± 0.031
UniProt O14732 and related entries	0.973 ± 0.1	0.98 ± 0.0035	1 ± 0.046	0.911 ± 0.095	0.99 ± 0.019	0.983 ± 0.035
CBX4 (UniProt O00257)	1.02 ± 0.051	1.03 ± 0.078	1.06 ± 0.049	1.17 ± 0.2	1.16 ± 0.12	1.22 ± 0.08
SCD (UniProt O00767)	0.93 ± 0.07	0.9234 ± 0.0079	0.894 ± 0.026	0.868 ± 0.067	0.903 ± 0.019	0.935 ± 0.016
B4GAT1 (UniProt O43505)	1.02 ± 0.044	1.03 ± 0.057	1.02 ± 0.029	0.983 ± 0.059	0.989 ± 0.047	0.995 ± 0.055
SPTLC2 (UniProt O15270)	1.02 ± 0.13	1.02 ± 0.099	0.983 ± 0.08	0.909 ± 0.11	1.03 ± 0.05	1.03 ± 0.061
UniProt O60293 and related entries	1.06 ± 0.057	1.09 ± 0.071	1.1 ± 0.064	1.14 ± 0.12	1.09 ± 0.098	1.12 ± 0.085
UniProt O14975 and related entries	1.13 ± 0.17	1.09 ± 0.11	1.12 ± 0.11	1.02 ± 0.093	1.1 ± 0.028	1.14 ± 0.03
UniProt O00139 and related entries	0.932 ± 0.034	0.964 ± 0.023	0.976 ± 0.025	1 ± 0.043	1.03 ± 0.027	1.02 ± 0.02
UniProt O43822 and related entries	1.03 ± 0.021	1.02 ± 0.046	1.02 ± 0.07	1.02 ± 0.078	1.03 ± 0.067	1.03 ± 0.044
OGT (UniProt O15294)	1.002 ± 0.009	0.979 ± 0.015	1 ± 0.027	0.985 ± 0.017	0.985 ± 0.019	0.979 ± 0.022
PDE6D (UniProt O43924)	1.05 ± 0.12	1.01 ± 0.048	0.975 ± 0.051	0.884 ± 0.1	1.01 ± 0.06	0.963 ± 0.071
UniProt O43736 and related entries	0.964 ± 0.062	0.92 ± 0.042	0.902 ± 0.046	0.905 ± 0.043	0.921 ± 0.078	0.932 ± 0.077
UniProt O60341	1.02 ± 0.035	1.02 ± 0.027	1 ± 0.021	1 ± 0.011	1.04 ± 0.041	1.07 ± 0.058
UniProt O14735 and related entries	0.835 ± 0.081	0.923 ± 0.16	0.927 ± 0.12	0.784 ± 0.087	0.921 ± 0.06	1.03 ± 0.055
OIP5 (UniProt O43482)	0.9 ± 0.091	0.928 ± 0.062	0.917 ± 0.068	0.876 ± 0.14	0.838 ± 0.13	0.929 ± 0.085
UniProt O15260 and related entries	1.01 ± 0.12	1.01 ± 0.1	1.01 ± 0.11	0.941 ± 0.11	1.02 ± 0.11	0.98 ± 0.12
UniProt O00115 and related entries	0.877 ± 0.055	0.904 ± 0.048	0.868 ± 0.066	0.928 ± 0.05	0.868 ± 0.057	0.821 ± 0.032

Target	NP40-soluble protein abundance (concentration: 1mM)	NP40-soluble protein abundance (concentration: 2mM)	NP40-soluble protein abundance (concentration: 4mM)	NP40-soluble protein abundance (concentration: 6mM)	NP40-soluble protein abundance (concentration: 8mM)	NP40-soluble protein abundance (concentration: 10mM)
UniProt O43929	1.1 ± 0.13	1.05 ± 0.064	1.07 ± 0.046	1 ± 0.11	1.09 ± 0.036	1.05 ± 0.046
UniProt O43852 and related entries	0.965 ± 0.045	0.9613 ± 0.0089	0.94 ± 0.01	0.965 ± 0.014	0.934 ± 0.019	0.897 ± 0.047
UniProt O43159	1.07 ± 0.076	1.1 ± 0.025	1.27 ± 0.049	1.27 ± 0.12	1.2 ± 0.026	1.31 ± 0.042
UniProt O43148 and related entries	1.03 ± 0.046	1.02 ± 0.05	1.01 ± 0.032	1.05 ± 0.04	1.03 ± 0.061	1.02 ± 0.025
M0R0N0 and related entries (UniProt O95182)	0.979 ± 0.095	0.955 ± 0.12	0.973 ± 0.041	0.988 ± 0.17	0.923 ± 0.06	0.916 ± 0.1
TAX1BP3 (UniProt O14907)	0.947 ± 0.018	0.948 ± 0.015	0.961 ± 0.033	0.943 ± 0.013	0.95 ± 0.054	0.925 ± 0.026
MRPS12 (UniProt O15235)	0.928 ± 0.019	0.907 ± 0.072	0.873 ± 0.11	0.787 ± 0.13	0.828 ± 0.17	0.831 ± 0.13
CLIC1 (UniProt O00299)	0.833 ± 0.23	0.953 ± 0.15	0.857 ± 0.2	0.901 ± 0.094	0.95 ± 0.05	0.878 ± 0.021
UniProt O43422	1.02 ± 0.098	0.967 ± 0.076	0.948 ± 0.092	0.892 ± 0.072	0.915 ± 0.075	0.903 ± 0.052
TOR1A (UniProt O14656)	1.01 ± 0.037	0.996 ± 0.04	0.964 ± 0.038	0.939 ± 0.088	0.93 ± 0.021	0.978 ± 0.029
UniProt O43299 and related entries	1.09 ± 0.1	0.99 ± 0.11	1.11 ± 0.15	1.08 ± 0.32	1.09 ± 0.098	1.13 ± 0.19
UniProt O43156	0.972 ± 0.076	0.978 ± 0.06	0.966 ± 0.037	0.925 ± 0.086	0.951 ± 0.031	0.964 ± 0.044
UniProt O00308 and related entries	1.15 ± 0.3	1.36 ± 0.25	1.58 ± 0.35	1.61 ± 0.27	1.54 ± 0.47	1.6 ± 0.36
POLR1C (UniProt O15160)	1.05 ± 0.034	1.02 ± 0.014	1.053 ± 0.0076	1.03 ± 0.033	1.05 ± 0.015	1.04 ± 0.041
EXTL3 (UniProt O43909)	0.93 ± 0.11	0.994 ± 0.091	0.984 ± 0.14	1.03 ± 0.053	1.05 ± 0.11	1.11 ± 0.094
STRN (UniProt O43815)	1.02 ± 0.031	0.986 ± 0.019	1 ± 0.038	1.02 ± 0.1	1.01 ± 0.037	1.03 ± 0.074
UniProt O43760 and related entries	0.8141 ± 0.0031	0.895 ± 0.046	0.948 ± 0.11	0.86 ± 0.018	0.853 ± 0.057	0.889 ± 0.058
MAFG (UniProt O15525)	0.948 ± 0.069	1 ± 0.034	1.01 ± 0.035	1.06 ± 0.073	0.98 ± 0.02	0.963 ± 0.058
TRAF5 (UniProt O00463)	1.04 ± 0.072	1.05 ± 0.03	1.04 ± 0.06	1.05 ± 0.066	1.03 ± 0.041	1.02 ± 0.063
UniProt O43663 and related entries	1.07 ± 0.034	1.06 ± 0.031	1.12 ± 0.031	1.12 ± 0.035	1.13 ± 0.04	1.1 ± 0.023

Target	NP40-soluble protein abundance (concentration: 1mM)	NP40-soluble protein abundance (concentration: 2mM)	NP40-soluble protein abundance (concentration: 4mM)	NP40-soluble protein abundance (concentration: 6mM)	NP40-soluble protein abundance (concentration: 8mM)	NP40-soluble protein abundance (concentration: 10mM)
PHGDH (UniProt O43175)	0.921 ± 0.062	0.94 ± 0.031	0.913 ± 0.026	0.963 ± 0.024	0.904 ± 0.025	0.905 ± 0.021
AKAP10 (UniProt O43572)	1.04 ± 0.053	1.05 ± 0.059	1.07 ± 0.082	0.998 ± 0.14	0.987 ± 0.087	1.07 ± 0.039
SLC33A1 (UniProt O00400)	1.04 ± 0.13	0.992 ± 0.056	0.989 ± 0.079	0.901 ± 0.19	1.02 ± 0.16	0.972 ± 0.075
UniProt O15117-2|O15117-3	0.943 ± 0.046	0.9539 ± 0.002	0.901 ± 0.012	0.9964 ± 0.0088	0.904 ± 0.04	0.9277 ± 0.0011
UniProt O43150 and related entries	1.05 ± 0.054	1.06 ± 0.035	1.05 ± 0.023	1.02 ± 0.014	1.02 ± 0.016	1.02 ± 0.068
UniProt O14773 and related entries	0.932 ± 0.033	0.939 ± 0.019	0.902 ± 0.029	0.892 ± 0.048	0.9 ± 0.037	0.877 ± 0.029
SYNJ2 (UniProt O15056)	1.03 ± 0.025	1.01 ± 0.011	1.017 ± 0.0097	0.999 ± 0.035	1.01 ± 0.018	1 ± 0.028
UniProt O43292 and related entries	1.01 ± 0.19	1.07 ± 0.21	1.11 ± 0.18	1.07 ± 0.2	0.965 ± 0.033	1.03 ± 0.13
ZZEF1 (UniProt O43149)	1.05 ± 0.067	1.01 ± 0.039	0.993 ± 0.043	0.986 ± 0.1	1.02 ± 0.047	0.997 ± 0.086
UniProt O14828 and related entries	0.944 ± 0.024	0.948 ± 0.02	0.923 ± 0.049	0.963 ± 0.033	0.917 ± 0.037	0.917 ± 0.032
UniProt O00148	1.01 ± 0.028	1 ± 0.018	1.006 ± 0.0097	0.997 ± 0.07	1.05 ± 0.025	1.04 ± 0.041
NDUFS4 (UniProt O43181)	0.967 ± 0.039	0.945 ± 0.033	0.905 ± 0.017	0.963 ± 0.11	0.918 ± 0.062	0.909 ± 0.037
UBE2L6 (UniProt O14933)	0.898 ± 0.11	0.878 ± 0.067	0.889 ± 0.15	0.85 ± 0.1	0.901 ± 0.073	0.885 ± 0.088
M0R0C6 and related entries (UniProt Q92945)	0.944 ± 0.062	0.947 ± 0.027	0.935 ± 0.038	0.976 ± 0.038	0.913 ± 0.013	0.908 ± 0.028
CLGN (UniProt O14967)	1 ± 0.039	0.994 ± 0.036	0.976 ± 0.039	1.01 ± 0.038	0.968 ± 0.015	0.991 ± 0.03
GIPC1 (UniProt O14908)	0.996 ± 0.026	0.996 ± 0.05	0.988 ± 0.041	0.963 ± 0.033	0.961 ± 0.031	0.993 ± 0.035
ARPC3 (UniProt O15145)	1.04 ± 0.11	0.968 ± 0.028	0.946 ± 0.093	0.945 ± 0.03	0.997 ± 0.054	0.894 ± 0.063
SLC16A3 (UniProt O15427)	0.956 ± 0.011	0.934 ± 0.084	0.945 ± 0.048	0.932 ± 0.019	0.941 ± 0.061	0.915 ± 0.049
UniProt O43683 and related entries	0.972 ± 0.054	1.02 ± 0.038	0.9948 ± 0.0085	1.03 ± 0.057	0.993 ± 0.033	0.979 ± 0.043
NDUFA4 (UniProt O00483)	0.912 ± 0.034	0.897 ± 0.042	0.849 ± 0.025	0.867 ± 0.014	0.8942 ± 0.0052	0.834 ± 0.022

Single records (already shown). Values in the order: NP40-soluble protein abundance (concentration: 1mM)	NP40-soluble protein abundance (concentration: 2mM)	NP40-soluble protein abundance (concentration: 4mM)	NP40-soluble protein abundance (concentration: 6mM)	NP40-soluble protein abundance (concentration: 8mM)	NP40-soluble protein abundance (concentration: 10mM)
UniProt O43292 and related entries as listed: 1.01 ± 0.19	1.07 ± 0.21	1.11 ± 0.18	1.07 ± 0.2	0.965 ± 0.033	1.03 ± 0.13
AKAP10 (UniProt O43572) as listed: 1.04 ± 0.053	1.05 ± 0.059	1.07 ± 0.082	0.998 ± 0.14	0.987 ± 0.087	1.07 ± 0.039
SLC16A3 (UniProt O15427) as listed: 0.956 ± 0.011	0.934 ± 0.084	0.945 ± 0.048	0.932 ± 0.019	0.941 ± 0.061	0.915 ± 0.049
ZZEF1 (UniProt O43149) as listed: 1.05 ± 0.067	1.01 ± 0.039	0.993 ± 0.043	0.986 ± 0.1	1.02 ± 0.047	0.997 ± 0.086
